Experimental findings from PubChem BioAssay AID1508600 (Functional Genomics Laboratory (NCATS/FGL), 2020) are described below.

Hit rate of the full screen: of about 53,000 sequences, about 3,700 (7%) were called active.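 How the source made its calls: active means gene knockdowns whose robust z-score for IL-1 alpha signal is at least 2 or at most -2, so actives lie on both sides; inactive means the rest.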 The list shows a part of the results.

A short description of the experiment: Components of the Cytosolic LPS Sensing Pathway: Gene Identification via Genome-wide siRNA Screen.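 Further: robust z of the log signal after scaling to non-targeting control siRNA wells of the plate.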 Conditions: RAW264.7 macrophages, IL-1a HTRF, actives lie on both sides, screened at 100 nM (by protocol), cells primed 5 h with Pam3CSK4 first. In a few lines:
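Three distinct siRNAs per gene were tested singly at 100 nM in RAW264.7 macrophages. Following Pam3CSK4 priming and 24 hour LipidA transfection, IL-1a secretion was read by HTRF.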
(In general: Time-resolved FRET reads energy transfer from a long-lived donor to a nearby acceptor.)
Regarding GGUAGAAAAAGUAAUUUCCTT against Tmprss2, the z-score is inactive: 0.407.
For “GGUUUUAUAUUGCUUCUCCTT against 9230109A22Rik”, the z-score is inactive: 0.615.
As to CCCAAUUAGAAUAAAGCUUTT against Asb11, the z-score is inactive: -1.81.
For the sequence GGUGGAGAGCUACAAUAUUTT against Pcdhga11, the z-score was inactive: 1.04.
For GGUCAUCGAGUUGCUUUUUTT against Gga3 the value was inactive: 0.946.
On to GGUGGACUUCGAGAACAUATT against Cyp2d26, for which the z-score was inactive: 0.75.
Regarding GGAAAGCGAUACCUAAACATT against Atp13a4, the z-score is inactive: 0.753.
In the case of CGUCAAUGAAUUCGACUCUTT against Pnlip, the z-score is inactive: 0.348.
Consider GGGAACAGGUUACAUUCAUTT against Gimap8, for which the z-score is inactive: 0.461.
The value for CCAGAUCUACGAAAGUUUATT against Snx19 was inactive: -0.282.
Take CCUUUUGAUGCAUCCCGUCTT against Bpifb3: the z-score was inactive: 0.709.
Turning to GGGAUUUCUCGAAUGAAUGTT against Pgm2, the z-score is inactive: -0.767.
On to GGUCAGUAUCAGAAUGAUCTT against Rft1, for which the z-score is inactive: -0.831.
GCCUGAUUGUGACGUGGUUTT against Slc19a2: the z-score was inactive: 0.283.
For GGGUUUUGAAAGAGGAAAATT against Osbpl8 the value was inactive: 1.52.
Turning to GGAAAUGGGAUUUAAGGAATT against Fan1, the z-score was inactive: -0.0528.
On to GGACGAGAAUCAAGAGCAGTT against Cdkn1c, for which the z-score was inactive: -0.0249.
In the case of CCGUGGAGACAGAUCUAGATT against Hif3a, the z-score is inactive: 0.486.
On to GUAUGAUGCACUCCAGUUGTT against Hdac8, for which the z-score is inactive: -0.244.
On to UAGGAUUUAGCAAGCCACCTT against Zfp708, for which the z-score is inactive: -0.151.
With UUUCCGUUUUAGGAUGUGATT against Olfr319, the z-score is inactive: 1.
The value for GGUGCGCUGUGUUGUUCAUTT against Bmper was inactive: 1.81.
Take GGAAGAUGUUACUUCAAAGTT against Anln: the z-score is inactive: 0.475.
For GGACAUGACAUCCAAAGACTT against Prmt1 the value was inactive: -0.649; for GGGCCUAAAGGACUUGGCUTT against Dlg4, inactive: -0.548.
Take GCGAAACCGUGUUUCUCUATT against Skil: the z-score was inactive: -1.25.
The value for GCCAAGAGGUUUUAUGGUUTT against Trim38 was inactive: -1.03.
Regarding GCACAGCCUGGUCAAAAACTT against S100a16, the z-score was inactive: -1.59.
CCCUAUUGAUUCAACUUGGTT against Samt4: the z-score was inactive: 0.253.
The value for CCCAGCUCUACUUUUUCUCTT against Olfr971 was inactive: -1.87; that for GCCUUUGUGUUACAAUAUGTT against Fermt2 was inactive: 0.487.
Regarding GCUCCAAUAACAUGAGUAGTT against Tmem151a, the z-score is inactive: 0.208.
Take GGAACAAAGGAUCUGUCUGTT against Sec23a: the z-score was inactive: 0.0636.
CGCUCCUUUUUGUUAAUGCTT against Psmf1: the z-score was inactive: 0.594.
For the sequence CCGCUUCAAUGUCUACUGCTT against Bcan, the z-score is inactive: 0.363.
In the case of GCACCUAGACAAUAACUUATT against Selenof, the z-score is inactive: -0.782.
For the sequence GCGAUGUUUGGAUGACUUATT against Efl1, the z-score was inactive: 0.423.
In the case of CCUGCACUACUGGAUUGGATT against Vill, the z-score was inactive: 0.265.
The value for CCACUCUAAAGAGUUGUACTT against Surf1 was inactive: 1.3.
As to GGAAAUGAUCACAGCUGGGTT against Ccl20, the z-score is inactive: 0.992.
Turning to GGGUUAGGCCAGUUCUGAUTT against Reg3d, the z-score was active: -2.08.
For GCGCAAGUUGUGCAGAACUTT against Asb5, the z-score is inactive: 0.201.
GCCAAGAUUGUCAAAGAUCTT against Pgk1: the z-score was inactive: -1.27.
In the case of GGUAGAUUCUAAUUGUUCATT against Ciao2a, the z-score is inactive: 0.992.
The value for CCGGCUAGAAACCGUGAAUTT against Tsku was inactive: 0.696; that for GCGAUACCAGGGACUACAUTT against Zfp692 was inactive: 1.75; that for GGAGAGUUACGACGUAUUCTT against Ckb was inactive: 0.23.
For the sequence GCGUGUCUUGCUCUUUUGATT against Usp22, the z-score was inactive: -1.21.
For the sequence GAGAUGGACAAUCUCAUGGTT against Pcp2, the z-score is inactive: -1.03.
As to GGACCUUCAGAAGCUGAUCTT against Cmss1, the z-score is inactive: -0.308.
Regarding GGUCAAAAAAUAUUGAUGCTT against Itgav, the z-score is inactive: -1.05.
As to GCUAUGUUGUUAAAACGAATT against Amotl2, the z-score is inactive: 0.258.
Take GGCACGUACCAUUGAGAUATT against Ina: the z-score is inactive: 0.549.
Turning to GGCAUCCAAUAAACAUAUUTT against Selplg, the z-score is inactive: -0.157.
For GGCAAAAGAAUCGUUCUCATT against Ppat the value was inactive: -0.848; for CCUAUCUUAUGAUGACAUATT against Erich3, inactive: -0.0224; for AGAGACUAGGGAUGCAUCUTT against Olfr462, inactive: -0.306.
For GCAUCUUGUUUUAAUGACUTT against Car5b the value was inactive: -0.0409; for GGGACACCGUCAAUCUUUATT against Frzb, inactive: -0.269; for GCCUCAAUUGUUUACUUAUTT against Edn2, inactive: 0.404.
For the sequence CCGCCCUGAUUAUUGCCAUTT against Edar, the z-score was inactive: -0.179.
Consider GCCAGUUGACCACUAUUGATT against Tox4, for which the z-score is inactive: -0.764.
The value for GGAAGAGACCAAAGUAUAATT against Map2k7 was inactive: 0.318; that for CGUACAUCCUAAAAGUGGGTT against Pcdhac1 was inactive: -0.613; that for GGAUCUCUCUUUCCUCCUCTT against Gli1 was inactive: 0.0792.
For GGAUACUCGGGAUCUAGUATT against Anxa11 the value was inactive: -1.44.
Take CCGGUAUUCAAUAGCUCUCTT against Cybb: the z-score is inactive: -0.909.
For GCGACACCCUGAUCAUGAATT against Ascl3 the value was inactive: -1.37; for GCCCACCGACUUUAUUAACTT against Tfap2d, inactive: 0.541; for CGAACUGAAGGUUUUCAAUTT against Knstrn, inactive: 0.422.
As to CGGGAAUCCUAUCUAUCAATT against Smox, the z-score was inactive: 0.762.
Consider GCUACGUUAAGUGAAGAUATT against Acad9, for which the z-score was inactive: 0.407.
In the case of GCAACUUGGCUACAAUUACTT against Dct, the z-score is inactive: 0.987.
GCUUGAUGACUACCACUGATT against Rrp36: the z-score was inactive: 0.496.
Consider GCCGAACUAUUGGCUCAAGTT against Gucy2e, for which the z-score was inactive: -0.692.
GGACCUUUUGUCUAUAAUGTT against Arl4c: the z-score is inactive: 0.759.
For GGUUCAAAUACAUUGCCAUTT against Rabif, the z-score is inactive: -0.778.
With GGGAGGAUGAACAUCAAAGTT against Afg1l, the z-score was inactive: 0.786.
The value for GGUUGUCUGUCUUUUCCGGTT against Mta2 was inactive: 0.868; that for GGGCAACAUUGAAACAAAUTT against Idh3g was inactive: 0.939.
Consider GGAAUUGAGAAAUCUAAUGTT against Rev1, for which the z-score is inactive: 0.323.
Turning to CGCAUUAUGCUUGAAAUGUTT against Nefh, the z-score is inactive: -0.442.
GCUAAGUCCGACUAAGCAUTT against Hmgn1: the z-score is inactive: -0.988.
The value for GGAGGAGAGAACAAAAUGUTT against Itgb1bp2 was inactive: 0.839; that for GGAAGCUUUUUUCUGAGCUTT against Fam3a was inactive: -1.27; that for GCCAAAGUGCAGAAUUGGUTT against Rhox1 was inactive: -1.64.
As to GCAGAUCAAAUUUAGCUGATT against Wwc2, the z-score is inactive: 0.266.
In the case of GGCAUAUGCACUUUAUUUCTT against Cep97, the z-score is inactive: -0.339.
For GGCCUUCCAUACUACAACUTT against Zfp595 the value was active: 2.2; for CCCUAAUAUCACAUGGUGGTT against Cd79a, inactive: 0.598; for CGAAGGAGCAACGGUAAAATT against Fkbp5, inactive: 0.953.
Consider GGAUGUCCACAACAAGUGATT against Glra1, for which the z-score is inactive: -0.0877.
Consider GCAGACAGAGUUUUAACGUTT against Fancl, for which the z-score is inactive: -0.381.
The value for GGCUAAAACUGCACAUAAATT against Pyroxd1 was active: -3.43.
With GGAUACAAUGUCCGAGUGCTT against Tie1, the z-score was inactive: -0.485.
For CGUAGGACACGUGAAUUGUTT against F7 the value was inactive: -0.92; for CGGCACUGUCAUAAGUGUGTT against Utp4, active: 2.39; for GCAUGGCUAUUUAACAUUCTT against Rpl7l1, inactive: 0.171.
Regarding GGACACAGAUGGUUUGUAUTT against Rcc1, the z-score is inactive: -1.57.
As for GGCUUCUCAUUGUGAAUAUTT against M1ap, the z-score was inactive: -0.869.
For GGAUUUGAGAGAUUCAGUUTT against Siglecg, the z-score is inactive: 0.0503.
As to CCGCUGUUUUCAACUGUGCTT against Asb10, the z-score is inactive: -0.773.
Turning to GGAAAAGAAAGAUGUGACUTT against Trappc9, the z-score was active: -2.55.
GGGACAGCAACAUUGUCAATT against Inhbc: the z-score is inactive: 0.907.
Take GGCAUCUAUGACAAGUUUGTT against Dnajb13: the z-score was inactive: 0.567.
For GGACAUUUAAAAUCACUUGTT against Fam110c, the z-score is inactive: -0.895.
For GGAAAAGAUGGCUGUUGUCTT against Banf1 the value was inactive: -1.18.
